This assay deals with T1, Parkin (mouse (endogenous in heart)) (UniProt Q9WVS6).
T1 sequence: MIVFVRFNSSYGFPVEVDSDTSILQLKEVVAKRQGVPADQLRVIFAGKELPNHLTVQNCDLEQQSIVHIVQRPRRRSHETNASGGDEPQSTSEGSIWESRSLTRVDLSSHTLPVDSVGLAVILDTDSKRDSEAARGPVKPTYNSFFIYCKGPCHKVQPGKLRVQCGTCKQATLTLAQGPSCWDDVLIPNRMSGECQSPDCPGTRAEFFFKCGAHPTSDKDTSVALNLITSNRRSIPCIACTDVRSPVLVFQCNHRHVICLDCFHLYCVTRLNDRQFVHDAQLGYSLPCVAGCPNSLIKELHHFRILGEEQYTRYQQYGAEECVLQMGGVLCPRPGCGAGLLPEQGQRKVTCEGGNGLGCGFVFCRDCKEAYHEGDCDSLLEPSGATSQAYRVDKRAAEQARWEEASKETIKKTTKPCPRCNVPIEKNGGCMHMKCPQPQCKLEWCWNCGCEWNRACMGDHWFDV
Kind of assay: co-IP; myocardial whole-cell lysate (500 uL) incubated with 6-10 ug of antibody or IgG (control) at 4°C overnight, then protein A/G magnetic beads for 2 h; western blot; mouse model of DOX-induced myocardial damage. (A western blot detects proteins with antibodies after separation by electrophoresis.)

The text below walks through data of paper PMC13449084.

No constants are given. Whether binding was seen depends on the method and setting. In cells and extracts the contact can be indirect. Some binding calls cover weakened binding; strength is not graded here.

B1: Fibroblast growth factor 13 (protein, UniProt P70377 1-245)
chain: MAAAIASSLIRQKRQAREREKSNACKCVSSPSKGKTSCDKNKLNVFSRVKLFGSKKRRRRRPEPQLKGIVTKLYSRQGYHLQLQADGTIDGTKDEDSTYTLFNLIPVGLRVVAIQGVQTKLYLAMNSEGYLYTSEHFTPECKFKESVFENYYVTYSSMIYRQQQSGRGWYLGLNKEGEIMKGNHVKKNKPAAHFLPKPLKVAMYKEPSLHDLTEFSRSGSGTPTKSRSVSGVLNGGKSMSHNEST
Consider B1, for which the binding result is given as “binds”.
